# Experimental data: article PMC12040169 (PLOS Biology, 2025)
# Some of the results follow.
# Tested on: T1, CTL2-GFP (C. trachomatis L2/434/Bu, GFP-expressing)
# T1 construct: L2/434/Bu, GFP-expressing
# Parameters: species or system HeLa; Intracellular C. trachomatis growth in HeLa cells, bulk GFP fluorescence relative to DMSO
# Conditions: bulk GFP, single well; 28.5 h, 10 µM; inhibitor
row,Structure (SMILES),% of control remaining
1,O=C1c2ccccc2S(=O)(=O)N1CC(O)Cn1ccc2ccccc21 (centres unmarked) [CBK267905],106.869%
2,COc1ccc2[nH]cc(CC(=O)N3CCCC4(CCN(C(=O)c5ccc(OC)c(OC)c5)C4)C3)c2c1 (centres unmarked) [CBK131666],120.64%
3,O=C(CSc1ccc(Cl)cc1)Nc1ccc(CN2CCOCC2)cc1 [CBK305855],157.295%
4,O=C(NCCc1ccccc1)c1cc(-c2ccccc2Cl)[nH]n1 [CBK288113],132.752%
5,Cc1ccc2nc(C)cc(C(=O)NNC(=O)Nc3ccc([N+](=O)[O-])cc3)c2c1 [CBK266890],108.244%
6,Cc1cc(CC(=O)NCc2c(-c3ccccc3)noc2C)on1 [CBK144090],123.601%
7,Cc1ccc(OCC(=O)Nc2ccccc2N2CCN(S(C)(=O)=O)CC2)cc1 [CBK268722],94.6419%
8,CS(=O)(=O)c1ccc(-c2cccc(COC3CCN(C(=O)Cc4ccc(F)cc4F)CC3)c2)cc1 [CBK149506],90.4612%
9,COc1ccccc1C1=NN(C(=O)CCCC(=O)O)C(c2ccco2)C1 (centres unmarked) [CBK266642],121.019%
10,Cn1cc(-c2cncn2CCCOc2ccc(Cl)cc2)cn1 [CBK281784],175.905%
11,O=C(/C=C/c1ccco1)Nc1cc2ccccc2cc1NC(=O)/C=C/c1ccco1 [CBK261474],120.032%
12,Nc1ccc(-c2cn3ccnc3c(NCc3cccs3)n2)cc1 [CBK066564],199.099%
13,O=C1C(n2c(=O)[nH]c3ccccc3c2=O)CCN1CC(F)(F)F (centres unmarked) [CBK305264],79.3091%
14,O=C(O)c1ccccc1NS(=O)(=O)c1cccc2cccnc12 [CBK042358],146.557%
15,CC(NC(=O)c1c2c(nn1C)CCCC2)c1ccccn1 (centres unmarked) [CBK281888],132.595%
16,COCCN(Cc1nnc(-c2cccs2)o1)C(C(=O)N1CCOCC1)c1ccccc1 (centres unmarked) [CBK295190],148.641%
17,Cc1ccc(N(CCc2cc(C(F)(F)F)cc(C(F)(F)F)c2)C(=O)CN)cc1NC(=O)CN(C)C [CBK003630T],133.845%
18,COc1ccccc1CC(=O)N1CCCC(c2cc3ncccc3[nH]2)C1 (centres unmarked) [CBK283417],122.134%
19,O=C(Oc1cccc(-c2cnc3ccccc3n2)c1)c1cccc(S(=O)(=O)N2CCOCC2)c1 [CBK262096],97.2397%
20,O/N=C/Nc1nccc(-c2cc(Cl)sc2Cl)n1 [CBK005934],151.377%
21,COc1cc(OC)cc(C(=O)N2CCC3(CC2)CC(=O)c2cc(C)ccc2O3)c1 [CBK167804],113.995%
22,Cc1cc(COc2nccnc2N2CCCC2)no1 [CBK115755],104.386%
23,Cc1cc(C)cc(OCc2nnc(SCC(=O)N3CCN(c4ccccc4)CC3)o2)c1 [CBK268012],126.192%
24,CC(C#N)(NC(=O)COc1ncnc2sc3c(c12)CCC3)C1CC1 (centres unmarked) [CBK306333],92.4417%
25,Cc1cnc(CN2CCNC(=O)C2c2ccccc2C(F)(F)F)o1 (centres unmarked) [CBK306431],80.4768%
26,CN(C)CCN(C)C(=O)c1ccc(-c2cc3ccccc3o2)nc1NCc1cccnc1 [CBK076160],113.479%

# Seven records picked at random from those above, as already listed:
row,Structure (SMILES),% of control remaining
2,COc1ccc2[nH]cc(CC(=O)N3CCCC4(CCN(C(=O)c5ccc(OC)c(OC)c5)C4)C3)c2c1 (centres unmarked) [CBK131666],120.64%
1,O=C1c2ccccc2S(=O)(=O)N1CC(O)Cn1ccc2ccccc21 (centres unmarked) [CBK267905],106.869%
14,O=C(O)c1ccccc1NS(=O)(=O)c1cccc2cccnc12 [CBK042358],146.557%
15,CC(NC(=O)c1c2c(nn1C)CCCC2)c1ccccn1 (centres unmarked) [CBK281888],132.595%
3,O=C(CSc1ccc(Cl)cc1)Nc1ccc(CN2CCOCC2)cc1 [CBK305855],157.295%
13,O=C1C(n2c(=O)[nH]c3ccccc3c2=O)CCN1CC(F)(F)F (centres unmarked) [CBK305264],79.3091%
9,COc1ccccc1C1=NN(C(=O)CCCC(=O)O)C(c2ccco2)C1 (centres unmarked) [CBK266642],121.019%

# Continued.

row,Structure (SMILES),% of control remaining
1,CCCCCCC(C)n1c(-c2nonc2N)nc2ccccc21 (centres unmarked) [CBK062648],126.737%
2,CCN1C(=O)/C(=C/c2cc(Br)ccc2OCc2cccc([N+](=O)[O-])c2)NC1=S [CBK265138],156.205%
3,COc1ccc(-c2nnc([C@H]3CCN(Cc4cccc(C#N)c4)C3)o2)cc1 [CBK289400],112.018%
4,O=C(Nc1nc(-c2ccccc2)cs1)c1ccc(N2C(=O)CCC2=O)cc1 [CBK287333],145.739%
5,Cc1ccc(-n2c(SCC(=O)c3ccc4c(c3)OCO4)nnc2-c2ccncc2)cc1 [CBK266132],188.469%
6,Cc1nnc(NC(=O)c2ccc3c(c2)OCO3)s1 [CBK287358],132.571%
7,O=c1[nH]c2cc(NCCO)c([N+](=O)[O-])cc2[nH]1 [CBK009794],95.8537%
8,COc1ccc(Cl)cc1NC(=O)CN(c1cc(C(F)(F)F)ccc1Cl)S(C)(=O)=O [CBK264724],120.368%
9,Cc1cccc(NC(=O)COc2ccccc2CNc2ccc(Br)cc2)c1 [CBK266534],133.857%
10,Cc1cc(C)[n+](-c2nccs2)c(C)c1 [CBK008782G],90.2271%
11,CN(C)c1ccc(-c2cn3ccnc3c(NC3CC3)n2)cc1 [CBK037894],110.562%
12,Cc1sc2nc(C)n(C3CCN(C(=O)C(C)C)CC3)c(=O)c2c1C [CBK282414],116.066%
13,Cc1ccc(C(=O)C(NC(=O)c2ccco2)Nc2cccc3ccccc23)cc1 (centres unmarked) [CBK263856],66.4912%
14,COc1ccc(-n2c(SCc3nc4ccccc4[nH]3)nc3sc4c(c3c2=O)CCCC4)cc1 [CBK267558],143.672%
15,COc1ccccc1-c1nn2c(Cn3nnc4ccccc43)nnc2s1 [CBK268373],148.958%
16,O=C(C/C=N/OCc1ccccc1)c1sccc1Cl [CBK021611],141.54%
17,Cc1nc([N+](=O)[O-])c(N2CCN(C)CC2)n1Cc1ccccc1 [CBK261421],118.063%
18,CC(=O)Nc1ccc(CC(C(=O)O)c2ccccc2)cc1 (centres unmarked) [CBK286600],124.987%
19,CCCC(=O)Nc1cc(S(=O)(=O)NC)ccc1C [CBK024770],124.391%
20,Cc1ccc2[nH]c(SCc3nc(-c4cccs4)no3)nc2c1 [CBK269509],113.771%
21,COc1ccccc1N1CCN(c2nccc3sc(S(=O)(=O)NC4CCC4)cc23)CC1 [CBK038248C],126.52%
22,COc1ccc(C(=O)Nc2ccc3[nH]ccc3c2)cc1Cl [CBK159681],100.379%
23,N=C1/C(=C/c2ccc(-c3cccc([N+](=O)[O-])c3)o2)C(=O)N=C2SC(SCc3ccccc3)=NN12 [CBK265354],131.441%
24,COc1ccc(CC(=O)N2CCC(Cc3cccc(-c4cccs4)c3)(C(N)=O)CC2)cc1 [CBK285744],124.853%
25,FC(F)(F)c1cccc(CSc2nc3ccccc3nc2N2CCCC2)c1 [CBK107190],83.5542%
26,CC(C)c1ccc(/C=C/C(=O)NC(=S)Nc2cccc(C(=O)O)c2)cc1 [CBK265024],100%

row,Structure (SMILES),% of control remaining
1,CC(C)CCN(C)C(=O)c1cccc(S(=O)(=O)NCc2ccsc2)c1 [CBK307656],118.389%
2,CCOc1ccc(CNCc2ccc(C(=O)O)cc2)cc1OC [CBK269590C],145.302%
3,O=C(CSc1nc(O)cc(=O)n1-c1ccccc1)c1ccccc1 [CBK261745],102.207%
4,N=C(N)NCCc1c[nH]c2ccccc12 [CBK024011G],71.2117%
5,OC(CNCCc1cccnc1)COc1cccc2c1CCCC2 (centres unmarked) [CBK002237],87.4666%
6,Cc1cccc(/N=C(\N)Nc2nc(=O)cc(C)[nH]2)c1 [CBK288144],121.981%
7,CC(=O)NCCNC(=O)c1ccc(C)nc1N1CCOCC1 [CBK076453],157.391%
8,NC(=O)c1ccccc1NC(=O)Cc1ccc2c(c1)CCCC2 [CBK298334],85.6763%
9,O=C(NCCS(=O)(=O)c1ccccc1)c1cnc(-c2ccc(Cl)cc2)c(-c2ccco2)c1 [CBK037546],143.6%
10,CCCC(=O)Nc1ccccc1NC(=O)c1ccc2c(c1)OCO2 [CBK265841],126.108%
11,CCC(Sc1nc(C)cc(C)n1)C(=O)Nc1ccc(NC(C)=O)cc1 (centres unmarked) [CBK269804],108.273%
12,Cc1n[nH]c(C)c1CC(=O)NC(Cc1cccs1)c1ccccn1 (centres unmarked) [CBK285208],115.961%
13,COCCNS(=O)(=O)c1cccc2c1CN(C(=O)c1ccccc1)CC2 [CBK306539],134.448%
14,CC(C)c1ccc(N2C(=O)SC(c3ccccc3)C2=O)cc1 (centres unmarked) [CBK113687],109.625%
15,c1ccc(Oc2cccc(C(N3CCOCC3)N3CCOCC3)c2)cc1 [CBK261798],110.99%
16,O=C1CNC(=O)C2(C/C=C/C[C@H]3COCC[C@H]3N1)CCN(C(=O)C1CCOCC1)CC2 [CBK292143],156.33%
17,OCc1nnc2c3ccccc3c(-c3ccccc3)nn12 [CBK269927],111.331%
18,O=C(CSCc1ccc(Cl)cc1Cl)Nc1ccc(Oc2ccc3c(c2)C(=O)NC3=O)cc1 [CBK266779],131.972%
19,COc1ccc(CCN2C(=O)c3[nH]nc(-c4cc(C)c(C)cc4O)c3C2c2ccccc2)cc1 (centres unmarked) [CBK269154],142.325%
20,COc1cc(C=CC(=O)N(C)c2ccccc2C(=O)O)cc(OC)c1OC [CBK296136],129.289%
21,Cc1cc(C)c2oc(-c3ccc(C)c(NC(=O)COc4ccccc4C)c3)nc2c1 [CBK263067],96.9083%
22,CC(C)S(=O)(=O)n1c(=O)n(CC(=O)c2csc3ccccc23)c2ccccc21 [CBK106559],90.286%
23,Fc1ccc(OCCCCCN2CCC3(CC2)OCCc2c3[nH]c3ccccc23)cc1 [CBK113516T],42.5907%
24,CN(CC(=O)O)c1ccccc1C(=O)O [CBK260996],114.392%
25,Cc1ccc(C(=O)N(C)Cc2cc(-c3ccncc3)no2)c(=O)n1C [CBK307324],120.237%
